## Drug screen on melanoma cell lines: cell count

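Human melanoma cell lines in 1,536-well plates were treated with a pair of drugs for 72 h, then fixed, stained and imaged. Values are the number of DAPI-stained nuclei as a percentage of the DMSO control: 100 is no effect, lower means fewer cells. Concentrations were fixed for each drug; these are the lower of two levels, a fifth of the higher. No replicate spread is given; individual values may be noisy.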 An unselected part of the screen is shown. An entry leaves out what has no value listed here. A dash means that no value is listed here.

Drugs:
SNS-032 (10 nM): CC(C)(C)c1cnc(CSc2cnc(NC(=O)C3CCNCC3)s2)o1
GW9662 (2000 nM): O=C(Nc1ccccc1)c1cc([N+](=O)[O-])ccc1Cl
nilutamide (1000 nM): CC1(C)NC(=O)N(c2ccc([N+](=O)[O-])c(C(F)(F)F)c2)C1=O
Src-I1 (2000 nM): COc1cc2ncnc(Nc3ccc(Oc4ccccc4)cc3)c2cc1OC
docetaxel (0.1 nM): CC(=O)O[C@@]12CO[C@@H]1C[C@H](O)[C@@]1(C)C(=O)[C@H](O)C3=C(C)[C@@H](OC(=O)[C@H](O)[C@@H](NC(=O)OC(C)(C)C)c4ccccc4)C[C@@](O)([C@@H](OC(=O)c4ccccc4)[C@H]21)C3(C)C
GW2580 (1000 nM): COc1ccc(COc2ccc(Cc3cnc(N)nc3N)cc2OC)cc1
tamatinib (400 nM): COc1cc(Nc2ncc(F)c(Nc3ccc4c(n3)NC(=O)C(C)(C)O4)n2)cc(OC)c1OC
NVP-BEZ235 (4 nM): Cn1c(=O)n(-c2ccc(C(C)(C)C#N)cc2)c2c3cc(-c4cnc5ccccc5c4)ccc3ncc21

Pair	COLO 829	A2058	IPC-298	A375	MEL-HO	COLO 792
tamatinib + GW9662	80.9	97.4	85.8	82.8	79.7	47.4
docetaxel + tamatinib	52.1	6.5	48.4	19.4	44.3	20.0
SNS-032 + tamatinib	89.9	88.9	91.6	79.6	97.4	57.2
docetaxel + NVP-BEZ235	63.1	8.4	65.1	19.3	51.1	34.2
NVP-BEZ235 + GW2580	91.8	87.1	103	-	95.3	91.2
docetaxel + GW2580	36.8	6.6	63.6	-	67.5	30.2
nilutamide + GW2580	115	101	106	106	95.0	88.5
GW9662 + nilutamide	101	99.1	96.4	91.6	101	91.7
SNS-032 + GW9662	89.7	107	110	91.7	101	87.8
NVP-BEZ235 + tamatinib	81.1	80.2	73.4	71.7	83.7	49.8
tamatinib + Src-I1	77.5	82.4	83.9	97.6	81.6	60.3
Src-I1 + docetaxel	70.8	6.8	56.6	-	74.1	30.6
nilutamide + Src-I1	110	94.2	101	143	99.1	97.3
Src-I1 + SNS-032	88.2	103	97.4	89.1	108	95.4
GW2580 + GW9662	81.7	97.5	111	91.2	116	104
GW9662 + Src-I1	93.6	112	94.7	117	102	87.1
nilutamide + docetaxel	41.9	9.9	71.1	23.3	62.7	31.4
docetaxel + SNS-032	53.7	7.4	72.0	25.8	61.0	38.9
NVP-BEZ235 + nilutamide	85.8	86.3	92.8	82.4	78.4	82.4
GW2580 + SNS-032	108	96.9	107	99.6	105	92.1
tamatinib + nilutamide	95.8	84.1	82.9	78.9	90.0	54.2
Src-I1 + NVP-BEZ235	101	87.4	96.0	-	76.5	82.3
tamatinib + GW2580	109	106	76.0	80.5	84.9	55.2

Repeated from the top, 3 entries:

- tamatinib + GW9662 | COLO 829: 80.9; A2058: 97.4; IPC-298: 85.8; A375: 82.8; MEL-HO: 79.7; COLO 792: 47.4
- docetaxel + tamatinib | COLO 829: 52.1; A2058: 6.5; IPC-298: 48.4; A375: 19.4; MEL-HO: 44.3; COLO 792: 20.0
- SNS-032 + tamatinib | COLO 829: 89.9; A2058: 88.9; IPC-298: 91.6; A375: 79.6; MEL-HO: 97.4; COLO 792: 57.2

From a melanoma drug combination screen (doi:10.1371/journal.pone.0140310); values rounded.